The values below come from US12029804B2, “Peptide for promoting mucous membrane permeation and composition containing same” (SOONCHUNHYANG UNIVERSITY INDUSTRY ACADEMY COOPERATION …, priority 2018, dated 2024).

This series in a line: in vivo. Conditions: male, Sprague-Dawley, rat, inhaled or intranasal, 1 mg/kg. The procedure: Male Sprague-Dawley (SD) rats (280-300 g) were acclimated for a minimum of two days in individual cages in a laboratory animal room. At this time, the rats were allowed to freely consume food and water before an experiment, provided with light for 12 hours, and maintained in the dark state for 12 hours. One day before the experiment, the animals were provided only with water and fasted.
The rats prepared in above 1 were divided into each group of three to five rats so as to prepare a total of nine groups, after which each of the test substances prepared was intranasally administered into the group. At this time, the dosage of each drug was 1.0, 2.5 or 5.0 mg/kg per rat.
Before intranasal administration, the rat was anesthetized and cannulated into the femoral veno-artery using PE-50. The solution was carefully administered to the nostril of the rat using a micropipette (Eppendof) so as not to affect the nasal mucous membrane. At this time, the rat's body was laid on the floor and the head was placed while leaning against the wall.
The collected blood was centrifuged at 13,000 rpm for 10 minutes so as to obtain 100 μl of plasma. After adding 200 μl of methanol to the obtained plasma, the resulting solution was subjected into vortex, and then centrifuged again at 13,000 rpm for 10 minutes to carry out deproteinization, and the supernatant was quantitatively analyzed by HPLC-MS.

Structures are written as SMILES. Where a name gives a salt, the structure may show the parent alone.

What is called AUC(0-t) is exposure summed from dosing to a finite time, without extrapolation to infinity. Lower therefore signals low exposure. A word on the Cmax: it is the peak of the concentration-time curve. In general, Tmax refers to the time from dosing to the highest level. Regarding `CC(C)(C(=O)O)c1ccc(C(O)CCCN2CCC(C(O)(c3ccccc3)c3ccccc3)CC2)cc1` (stereo not drawn) [Fexofenadine, fexofenadine HCl, reference compound], the AUC(0-t) was 71.3 ng·h/mL, the peak concentration (Cmax) stood at 54.1 ± 3.19 ng/mL and the Tmax is 17.5 min.
